Experimental data published in article PMC12171025.
No constants are given. Whether binding was seen depends on the method and setting. Binding seen in cells or lysates may run through a third protein. Binding calls can cover weak binding; strength is not graded here.

Protein sequences, listed by entry. Tags and fused reporters are not part of them. Lines headed by an entry give the natural chain unless they say otherwise; changes in a name come on top.
UniProt Q9BSJ6: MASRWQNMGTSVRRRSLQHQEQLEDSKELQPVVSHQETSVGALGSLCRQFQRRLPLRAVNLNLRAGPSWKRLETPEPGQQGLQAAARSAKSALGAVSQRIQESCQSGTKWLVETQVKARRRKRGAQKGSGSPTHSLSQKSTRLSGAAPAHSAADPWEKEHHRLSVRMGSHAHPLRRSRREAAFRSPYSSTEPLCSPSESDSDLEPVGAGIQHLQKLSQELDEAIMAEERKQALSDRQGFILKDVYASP
UniProt Q15672: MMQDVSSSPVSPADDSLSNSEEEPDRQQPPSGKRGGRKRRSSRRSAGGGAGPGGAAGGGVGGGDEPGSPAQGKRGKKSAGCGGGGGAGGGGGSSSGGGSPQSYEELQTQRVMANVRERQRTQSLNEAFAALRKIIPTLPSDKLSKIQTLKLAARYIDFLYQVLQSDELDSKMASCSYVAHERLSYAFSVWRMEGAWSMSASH
UniProt Q9UNE7: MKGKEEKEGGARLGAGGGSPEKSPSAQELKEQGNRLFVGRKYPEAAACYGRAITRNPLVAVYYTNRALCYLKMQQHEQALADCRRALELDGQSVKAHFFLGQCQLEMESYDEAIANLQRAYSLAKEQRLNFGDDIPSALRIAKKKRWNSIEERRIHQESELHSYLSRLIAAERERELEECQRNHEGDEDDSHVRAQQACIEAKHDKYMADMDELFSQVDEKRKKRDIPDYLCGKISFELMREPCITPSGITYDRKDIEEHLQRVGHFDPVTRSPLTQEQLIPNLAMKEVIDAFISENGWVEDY

Target: FAM64A (human (endogenous in A2780)) (UniProt Q9BSJ6)
Assay: co-IP; A2780 cell lysates (500 ug) in RIPA buffer, overnight at 4°C with anti-FAM64A antibody (2 ug) and protein G agarose beads; IgG as negative control; TWIST1 and STUB1 detected by western blot

| binding | Substance |
| --- | --- |
| no binding | TWIST1 (from UniProt Q15672 1-202) |
| binds | STUB1 (STIP1 homology and U-box containing protein 1) (from UniProt Q9UNE7 1-303) (enzyme) |
